{"source": "PubChem BioAssay AID200", "about": "(DTP/NCI, 2004)", "tested_on": "B6C3F1 mice, B16 melanoma ip, median survival T/C", "test": "NCI In Vivo Anticancer Drug Screen. Data for tumor model B16 Melanoma (intraperitoneal) in B6C3F1 mice", "settings": "T/C endpoint: median survival time, higher T/C = longer survival", "in_short": "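Mice bearing transplanted tumor were dosed with compound or vehicle, and survival was recorded. Activity is expressed as the treated-group measurement (T) divided by the vehicle control measurement (C).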", "key": {"[1]": {"settings": "dose: 100.0 mg/kg/injection, schedule: Q01DX009 (ip), vehicle: saline with Tween-80"}, "[2]": {"settings": "dose: 50.0 mg/kg/injection, schedule: Q01DX009 (ip), vehicle: saline with Tween-80"}}, "note": "The list does not hold the whole screen: it is rich in T/C values a quarter to a half above the control, in often repeated tests (any T/C) and in doses without a T/C. Other doses and runs of a compound stand elsewhere. T/C gives the treated animals as a percentage of the vehicle group. Some entries give survivors of the animals treated and no T/C: the source files T/C as zero there, which appears to mark a toxic dose or a test without result, not a measured value. Some survivor counts are full or nearly so, which does not show that the dose was tolerated: survival well below the control is almost never listed, so the zero probably covers shortened survival too. Counts of survivors are from the toxicity check (mostly the fifth day) where no day follows; animals may have died later. Schedule codes are those of the source, taken here to give the interval after Q, in days (D) or hours (H), and the number of doses after X. Some entries hold several experiments; the values are given in rising order. Signs of the kind (2×) give the number of equal values in this list. For survival time, the PubChem record calls one and a half times the control and up active, and a quarter to a half above the control has no call in these data; cut-offs in other NCI protocols can differ. Some T/C values carry the count of animals alive at the toxicity check (mostly the fifth day); without a count, all were alive then.", "data": [{"smiles": "CC[C@@H](C)[C@@H]1NC(=O)C(NC(=O)C(CC(C)C)N(C)C(=O)C2CCCN2C(=O)C(C)O)C(C)OC(=O)C(Cc2ccc(OC)cc2)N(C)C(=O)C2CCCN2C(=O)C(CC(C)C)NC(=O)C(C)C(=O)C(C(C)C)OC(=O)C[C@H]1O", "note": "(stereo not given in full)", "values": [{"measurement": "T/C", "setting": "dose: 20.0 micrograms/kg/injection, schedule: Q01DX009 (ip), vehicle: other", "value": "141 % of control"}, {"measurement": "T/C", "setting": "dose: 40.0 micrograms/kg/injection, schedule: Q01DX005 (ip), vehicle: other", "value": "125 and 130 % of control"}, {"measurement": "T/C", "setting": "dose: 40.0 micrograms/kg/injection, schedule: Q01DX009 (ip), vehicle: distilled water + alcohol", "value": "145 % of control"}, {"measurement": "T/C", "setting": "dose: 40.0 micrograms/kg/injection, schedule: Q01DX009 (ip), vehicle: other", "value": "137 % of control"}, {"measurement": "T/C", "setting": "dose: 47.0 micrograms/kg/injection, schedule: Q01DX009 (ip), vehicle: other", "value": "145 % of control"}, {"measurement": "T/C", "setting": "dose: 47.0 micrograms/kg/injection, schedule: Q01DX009 (ip), vehicle: saline", "value": "143 % of control"}, {"measurement": "T/C", "setting": "dose: 71.0 micrograms/kg/injection, schedule: Q01DX009 (ip), vehicle: saline", "value": "143 % of control"}, {"measurement": "T/C", "setting": "dose: 80.0 micrograms/kg/injection, schedule: Q01DX005 (ip), vehicle: other", "value": "140 % of control"}, {"measurement": "T/C", "setting": "dose: 80.0 micrograms/kg/injection, schedule: Q01DX009 (ip), vehicle: distilled water + alcohol", "value": "147 % of control [9 of 10 alive]"}, {"measurement": "T/C", "setting": "dose: 80.0 micrograms/kg/injection, schedule: Q01DX009 (ip), vehicle: other", "value": "145 % of control"}, {"measurement": "T/C", "setting": "dose: 80.0 micrograms/kg/injection, schedule: Q03HX008 (ip), vehicle: saline", "value": "135 % of control [9 of 10 alive]"}, {"measurement": "T/C", "setting": "dose: 106.0 micrograms/kg/injection, schedule: Q01DX009 (ip), vehicle: saline", "value": "149 % of control"}, {"measurement": "T/C", "setting": "dose: 160.0 micrograms/kg/injection, schedule: Q01DX001 (ip), vehicle: other", "value": "131 % of control"}, {"measurement": "T/C", "setting": "dose: 160.0 micrograms/kg/injection, schedule: Q01DX005 (ip), vehicle: other", "value": "128 and 137 % of control [9 of 10 alive]"}, {"measurement": "T/C", "setting": "dose: 160.0 micrograms/kg/injection, schedule: Q01DX009 (ip), vehicle: other", "value": "144 and 149 % of control"}, {"measurement": "survivor count", "setting": "dose: 160.0 micrograms/kg/injection, schedule: Q03HX008 (ip), vehicle: saline", "value": "6 of 10"}, {"measurement": "survivor count", "setting": "dose: 240.0 micrograms/kg/injection, schedule: Q01DX009 (ip), vehicle: other", "value": "9 of 10"}, {"measurement": "survivor count", "setting": "dose: 240.0 micrograms/kg/injection, schedule: Q01DX009 (ip), vehicle: saline", "value": "9 of 10"}, {"measurement": "T/C", "setting": "dose: 320.0 micrograms/kg/injection, schedule: Q01DX001 (ip), vehicle: other", "value": "125 and 130 % of control"}, {"measurement": "T/C", "setting": "dose: 320.0 micrograms/kg/injection, schedule: Q01DX001 (ip), vehicle: saline", "value": "125 % of control"}, {"measurement": "survivor count", "setting": "dose: 320.0 micrograms/kg/injection, schedule: Q01DX005 (ip), vehicle: other", "value": "9 of 10"}, {"measurement": "survivor count", "setting": "dose: 320.0 micrograms/kg/injection, schedule: Q01DX009 (ip), vehicle: other", "value": "3 of 10 and 9 of 10"}, {"measurement": "survivor count", "setting": "dose: 320.0 micrograms/kg/injection, schedule: Q03HX008 (ip), vehicle: saline", "value": "0 of 10"}, {"measurement": "T/C", "setting": "dose: 640.0 micrograms/kg/injection, schedule: Q01DX001 (ip), vehicle: other", "value": "134 % of control"}, {"measurement": "T/C", "setting": "dose: 640.0 micrograms/kg/injection, schedule: Q01DX001 (ip), vehicle: saline", "value": "132 % of control"}, {"measurement": "survivor count", "setting": "dose: 640.0 micrograms/kg/injection, schedule: Q01DX005 (ip), vehicle: other", "value": "1 of 10 and 7 of 10"}, {"measurement": "survivor count", "setting": "dose: 640.0 micrograms/kg/injection, schedule: Q01DX005 (iv), vehicle: other", "value": "7 of 10 and 8 of 10"}, {"measurement": "survivor count", "setting": "dose: 640.0 micrograms/kg/injection, schedule: Q01DX005 (sc), vehicle: other", "value": "4 of 10 and 10 of 10"}, {"measurement": "survivor count", "setting": "dose: 640.0 micrograms/kg/injection, schedule: Q01DX009 (ip), vehicle: other", "value": "5 of 10"}, {"measurement": "survivor count", "setting": "dose: 640.0 micrograms/kg/injection, schedule: Q03HX008 (ip), vehicle: saline", "value": "0 of 10"}, {"measurement": "T/C", "setting": "dose: 1280.0 micrograms/kg/injection, schedule: Q01DX001 (ip), vehicle: other", "value": "140 % of control [8 of 10 alive]"}, {"measurement": "survivor count", "setting": "dose: 1280.0 micrograms/kg/injection, schedule: Q01DX005 (ip), vehicle: other", "value": "0 of 10"}, {"measurement": "survivor count", "setting": "dose: 1280.0 micrograms/kg/injection, schedule: Q01DX005 (iv), vehicle: other", "value": "0 of 10"}, {"measurement": "survivor count", "setting": "dose: 1280.0 micrograms/kg/injection, schedule: Q01DX005 (sc), vehicle: other", "value": "2 of 10"}, {"measurement": "survivor count", "setting": "dose: 1280.0 micrograms/kg/injection, schedule: Q01DX009 (ip), vehicle: other", "value": "0 of 10"}, {"measurement": "survivor count", "setting": "dose: 2560.0 micrograms/kg/injection, schedule: Q01DX001 (ip), vehicle: other", "value": "5 of 10 and 6 of 10"}, {"measurement": "survivor count", "setting": "dose: 2560.0 micrograms/kg/injection, schedule: Q01DX001 (ip), vehicle: saline", "value": "1 of 10"}, {"measurement": "survivor count", "setting": "dose: 2560.0 micrograms/kg/injection, schedule: Q01DX001 (iv), vehicle: other", "value": "0 of 10 and 2 of 10"}, {"measurement": "survivor count", "setting": "dose: 2560.0 micrograms/kg/injection, schedule: Q01DX001 (sc), vehicle: other", "value": "6 of 10"}, {"measurement": "survivor count", "setting": "dose: 2560.0 micrograms/kg/injection, schedule: Q01DX005 (sc), vehicle: other", "value": "0 of 10"}, {"measurement": "survivor count", "setting": "dose: 5120.0 micrograms/kg/injection, schedule: Q01DX001 (ip), vehicle: other", "value": "0 of 10 and 1 of 10"}, {"measurement": "survivor count", "setting": "dose: 5120.0 micrograms/kg/injection, schedule: Q01DX001 (ip), vehicle: saline", "value": "0 of 10"}, {"measurement": "survivor count", "setting": "dose: 5120.0 micrograms/kg/injection, schedule: Q01DX001 (iv), vehicle: other", "value": "0 of 10"}, {"measurement": "survivor count", "setting": "dose: 5120.0 micrograms/kg/injection, schedule: Q01DX001 (sc), vehicle: other", "value": "0 of 10 and 1 of 10"}, {"measurement": "survivor count", "setting": "dose: 5120.0 micrograms/kg/injection, schedule: Q01DX005 (oral), vehicle: other", "value": "0 of 10"}, {"measurement": "survivor count", "setting": "dose: 10240.0 micrograms/kg/injection, schedule: Q01DX001 (ip), vehicle: other", "value": "0 of 10"}, {"measurement": "survivor count", "setting": "dose: 10240.0 micrograms/kg/injection, schedule: Q01DX001 (iv), vehicle: other", "value": "0 of 10"}, {"measurement": "survivor count", "setting": "dose: 10240.0 micrograms/kg/injection, schedule: Q01DX001 (oral), vehicle: other", "value": "1 of 10"}, {"measurement": "survivor count", "setting": "dose: 20480.0 micrograms/kg/injection, schedule: Q01DX001 (oral), vehicle: other", "value": "0 of 10"}, {"measurement": "survivor count", "setting": "dose: 40960.0 micrograms/kg/injection, schedule: Q01DX001 (oral), vehicle: other", "value": "0 of 10"}]}, {"smiles": "O=c1[nH]c(=O)c2nc(-c3cccnc3)cnc2[nH]1", "values": [{"measurement": "survivor count", "setting": "dose: 200.0 mg/kg/injection, schedule: Q01DX009 (ip), vehicle: saline", "value": "10 of 10"}, {"measurement": "survivor count", "setting": "dose: 400.0 mg/kg/injection, schedule: Q01DX009 (ip), vehicle: saline", "value": "10 of 10"}]}, {"smiles": "COc1oc(C2C/C(=C/C(C)=C/C(C)=C/C(C)=C/c3ccc([N+](=O)[O-])cc3)CO2)c(C)c(=O)c1C", "note": "(stereo not given)", "values": [{"measurement": "survivor count", "setting": "dose: 4.0 mg/kg/injection, schedule: Q01DX009 (ip), vehicle: saline with Tween-80", "value": "9 of 10"}]}, {"smiles": "O=c1[nH]cnc2c1ccn2C1OC(CO)C(O)C1O", "note": "(stereo not given)", "values": [{"measurement": "survivor count", "setting": "dose: 24.0 mg/kg/injection, schedule: Q01DX009 (ip), vehicle: saline", "value": "10 of 10"}]}, {"smiles": "COc1cc(OC)c(NC(=O)ON2C(=O)c3ccccc3C2=O)cc1Cl", "values": [{"measurement": "survivor count", "setting": "[1]", "value": "10 of 10"}]}, {"smiles": "O=c1[nH]c(=O)n(C2CC(O)C(CO)O2)cc1I", "note": "(stereo not given)", "values": [{"measurement": "T/C", "setting": "[2]", "value": "128 % of control"}, {"measurement": "T/C", "setting": "[1]", "value": "128 [9 of 10 alive] and 138 % of control"}, {"measurement": "survivor count", "setting": "dose: 200.0 mg/kg/injection, schedule: Q01DX009 (ip), vehicle: saline with Tween-80", "value": "9 of 10"}, {"measurement": "survivor count", "setting": "dose: 400.0 mg/kg/injection, schedule: Q01DX009 (ip), vehicle: saline with Tween-80", "value": "7 of 10"}, {"measurement": "survivor count", "setting": "dose: 800.0 mg/kg/injection, schedule: Q01DX009 (ip), vehicle: saline with Tween-80", "value": "7 of 10"}]}, {"smiles": "O=C(O)CCCc1ccc(N(CCCl)CCCl)cc1", "values": [{"measurement": "T/C", "setting": "dose: 6.25 mg/kg/injection, schedule: Q01DX009 (ip), vehicle: saline with Tween-80", "value": "140 % of control"}, {"measurement": "survivor count", "setting": "dose: 25.0 mg/kg/injection, schedule: Q01DX009 (ip), vehicle: saline with Tween-80", "value": "0 of 10 and 7 of 10"}, {"measurement": "survivor count", "setting": "[2]", "value": "0 of 10 (2×)"}]}, {"smiles": "Cc1cc(=O)n2c3c(c4c(cc13)c(CN(C)C)cc(=O)n4C)OC2", "values": [{"measurement": "survivor count", "setting": "[1]", "value": "4 of 10"}]}, {"smiles": "C=C1C(O)C2OC3(CCC(/C=C/C(C)C4CC5(C)SC5C5(OC(CC(C)(O)C(=O)O)CCC5O)O4)O3)CCC2OC1C(O)CC(C)C1OC2(CCCCO2)CCC1C", "note": "(stereo not given)", "values": [{"measurement": "T/C", "setting": "dose: 10.0 micrograms/kg/injection, schedule: Q01DX009 (ip), vehicle: saline + alcohol", "value": "131 % of control"}]}]}
